Experimental data taken from PubChem BioAssay AID493014 (National Center for Advancing Translational Sciences (NCATS), 2011).
Screen size: about 340,000 compounds; about 170 (0.05%) were called active. Inconclusive means that the source gave no clear call. Such entries were picked first, then a sample of the others. Calls come from the whole dose curve; as a rule, active = well fitted inhibition curve with a large enough effect in the signal ratio, with a control signal flat (not every such curve was filed as active); inconclusive = small, poorly fitted or top-dose-only effect, or effect the other way, or a change in a side signal; inactive = flat fitted curve, though single readings scatter; the % refers to the signal ratio. Potencies beside an inconclusive call are fits to weak or partial responses and may not hold up.

Assay: qHTS Assay to Find Inhibitors of Chronic Active B-Cell Receptor Signaling;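 for activity change, negative = inhibition: plate controls were basal doxycycline-induced cells for no effect and cells given 10 µM MG132 for full effect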
Details: ABC-DLBCL IkBa-CBG/CBR reporter, luminescence ratio (green luciferase fused to IkBa over red control in TMD8 lymphoma cells), 4 h; activity change, negative = inhibition: at 46.1 µM (top of the series) unless noted
Procedure, shortened: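 Concentration-response series (up to 46 uM) were applied to TMD8 dual-reporter cells for 4 h at 37C with doxycycline. Green/red ratio, after filter-overlap correction, defined %Activity; red signal alone was normalised to basal cells and zero luminescence.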
Potency is the fitted concentration of half-maximal effect.

Q: With `N#Cc1c(C#N)c(-c2ccccc2)n(-c2ccccc2)c1N` as the molecule, how does the activity change, negative = inhibition read?
A: inconclusive: -17.6%

Q: Which activity change, negative = inhibition does the source give for `O=C(CN1CCCCC1)NNC(=O)c1cccc(Br)c1` here?
A: inactive

Q: With `COc1ccc(NC(=O)N2CCc3ccccc3C2)cc1` as the molecule, how does the activity change, negative = inhibition read?
A: inactive

Q: With `COc1ccc(/C=C(/NC(=O)c2ccccc2OC)C(=O)Nc2ccc(C(=O)O)cc2)cc1` as the molecule, how does the activity change, negative = inhibition read?
A: inconclusive: -5.05%

Q: With `O=C(CN1C(=O)c2ccccc2C1=O)Nc1ccccc1C(=O)N1CCCC1` as the molecule, how does the activity change, negative = inhibition read?
A: inconclusive: 2.29%

Q: For `Fc1ccc(C2NC(=S)NC3=C2N2CCC3CC2)cc1` (stereo not given), which activity change, negative = inhibition is on record?
A: inactive

Q: With `CCN(CC)S(=O)(=O)c1cccc(C(=O)N[C@H](C(=O)Nc2nc3ccccc3s2)C(C)C)c1` as the molecule, how does the activity change, negative = inhibition read?
A: inconclusive: 12.8%

Q: With `COc1cc(OC)cc(C(=O)NCC(=O)Nc2ccc(-c3ccccc3)cc2)c1` as the molecule, how does the Potency read?
A: inconclusive: 11.2 µM [falling, partial curve]

Q: With `CCC(CO)Oc1cc(NCc2ccccc2C(F)(F)F)c2ncn(C(C)C)c2c1` (stereo not given) as the molecule, how does the activity change, negative = inhibition read?
A: inconclusive: -3.44%

Q: Which Potency does the source give for `COC(=O)c1cc2ccccn2c2c(C(=O)OC)c(C(=O)OC)cc1-2` here?
A: inconclusive: 20.6 µM [rising, single point]

Q: For `CCOC(=O)CNC(=O)CSc1nc(-c2cccc(C)c2)ns1`, which activity change, negative = inhibition is on record?
A: inconclusive: -27.1%

Q: Which Potency does the source give for `Cc1ccc(S(=O)(=O)N2CCN(C)CC2)c(C)c1N(C)S(=O)(=O)c1ccc(Cl)cc1` here?
A: inconclusive: 0.0517 µM [rising, full curve]

Q: With `Cc1nn(Cc2c(F)c(F)c(F)c(F)c2F)c(C)c1NC(=O)c1c([N+](=O)[O-])cnn1C` as the molecule, how does the activity change, negative = inhibition read?
A: inconclusive: 0.822%

Q: For `O=C(CN1C(=O)c2ccccc2S1(=O)=O)Nc1ccccc1`, which Potency is on record?
A: inconclusive: 15.8 µM [falling, partial curve]

Q: With `COc1ccc(/C=C2\SC(=S)N(CCCCCC(=O)Nc3cc(C)on3)C2=O)cc1OC` as the molecule, how does the Potency read?
A: inconclusive: 12.6 µM [falling, partial curve]

Q: With `Clc1ccc2oc3c(Cl)ncnc3c2c1` as the molecule, how does the activity change, negative = inhibition read?
A: inactive

Q: For `Cc1ccc(Sc2c(CO)c(-c3ccccc3)nn2C)cc1`, which Potency is on record?
A: inconclusive: 20 µM [falling, partial curve, poor fit]

Q: Which activity change, negative = inhibition does the source give for `COc1ccc(NC(=S)Nc2cccc3cnccc23)cc1` here?
A: inactive

Q: Which activity change, negative = inhibition does the source give for `Cn1c(SCC(=O)N2CCCCC2)nc2c([nH]c3ccccc32)c1=O` here?
A: inconclusive: 20.9%

Q: Which activity change, negative = inhibition does the source give for `CC(=O)C(Sc1nc(N(C)C)nc(N(C)C)n1)C(=O)Nc1ccccc1` (stereo not given) here?
A: inconclusive: 10%

Q: With `Cc1ccc(C(=O)CC(=O)c2ccc(C(C)(C)C)cc2)cc1` as the molecule, how does the activity change, negative = inhibition read?
A: inactive

Q: For `CCCSc1ccc([C@H]2N[C@@](Cc3ccccc3)(C(=O)OC)[C@H]3C(=O)N(CC)C(=O)[C@@H]23)cc1`, which activity change, negative = inhibition is on record?
A: inconclusive: -4.47%

Q: Which activity change, negative = inhibition does the source give for `O=C(O)c1nn(CCOc2ccc(Br)cc2)c(=O)c2ccccc12` here?
A: inconclusive: -8.58%

Q: Which Potency does the source give for `CCc1cc(C(=O)Nc2ccccc2)cs1` here?
A: inconclusive: 29.1 µM [falling, single point]

Q: With `O=C(NC(=S)N1CCN(Cc2ccc3c(c2)OCO3)CC1)c1ccc(Cl)cc1` as the molecule, how does the activity change, negative = inhibition read?
A: inconclusive: 13.5%

Q: With `Cc1cc(=O)n2[nH]c(-c3ccc(Cl)cc3)cc2n1` as the molecule, how does the Potency read?
A: inconclusive: 29.1 µM [rising, single point]

Q: Which activity change, negative = inhibition does the source give for `COc1ccc(C2(C)NC(=O)N(CC(=O)Nc3ccc(Br)c(C)c3)C2=O)cc1OC` (stereo not given) here?
A: inconclusive: 5.44%

Q: Which Potency does the source give for `CC(=Nc1cc(C(=O)c2ccccc2)ccc1N)C1=C(O)CC(C)(C)CC1=O` here?
A: inconclusive: 10 µM [falling, partial curve]

Q: With `Nc1ncnc2c1ncn2C1OC(C(=O)NC2CC2)C(O)C1O` (stereo not given) as the molecule, how does the Potency read?
A: inconclusive: 0.0366 µM [falling, full curve, poor fit]

Q: With `CC(C)c1ccc(-c2nnn(CCC#N)n2)cc1` as the molecule, how does the activity change, negative = inhibition read?
A: inconclusive: 10.5%

Q: With `O=C(Nc1nccs1)c1cc(-c2ccco2)nc2ccccc12` as the molecule, how does the activity change, negative = inhibition read?
A: inconclusive: 5.28%

Q: For `CCCCN(C)C(=O)c1ccc2c(c1)N(Cc1cccc(F)c1)C(=O)c1ccccc1S2`, which activity change, negative = inhibition is on record?
A: inconclusive: 10.8%

Q: Which activity change, negative = inhibition does the source give for `Oc1cccc(Nc2nc(NCC3CCCO3)c3ccccc3n2)c1` (stereo not given) here?
A: inconclusive: -4.53%

Q: For `Cc1cccc(N(C)C(=O)c2cc3c(=O)[nH]c4ccc(C)cc4c3s2)c1`, which activity change, negative = inhibition is on record?
A: inconclusive: 5%

Q: For `O=C(O)COc1ccc(NC(=O)c2ccc(NC(=O)c3ccco3)cc2)cc1`, which Potency is on record?
A: inconclusive: 25.1 µM [falling, single point]

Q: Which activity change, negative = inhibition does the source give for `COc1ccc2[nH]c3c(=O)n(Cc4ccc(C(=O)N5CCCCCC5)cc4)c(=S)[nH]c3c2c1` here?
A: inactive

Q: Which activity change, negative = inhibition does the source give for `O=C(CCC(=O)Nc1ccccc1)NNC(=O)c1ccco1` here?
A: inconclusive: 10.6%

Q: Which activity change, negative = inhibition does the source give for `Cc1cccc(-n2c(=O)c3c4c(sc3n3c(C)nnc23)CCCC4)c1` here?
A: inactive

Q: With `CCCCCCC(=O)N(O)C1CC(=O)N(Cc2ccccc2)C1=O` (stereo not given) as the molecule, how does the Potency read?
A: inconclusive: 7.31 µM [falling, partial curve]

Q: Which Potency does the source give for `C=CCn1c(=O)c2c3c(sc2n2c(Nc4ccc(C(=O)OCC)cc4)nnc12)CCCC3` here?
A: inconclusive: 25.9 µM [rising, partial curve, poor fit]

Q: With `CCN(Cc1ccncc1)Cc1c(O)ccc2cc(Br)ccc12` as the molecule, how does the activity change, negative = inhibition read?
A: inconclusive: 7.29%

Q: With `COc1cccc(-c2nc(CS(=O)(=O)c3ccccc3)no2)c1` as the molecule, how does the Potency read?
A: inconclusive: 25.9 µM [falling, partial curve, poor fit]

Q: For `O=C(Cn1c(=O)oc2cc(S(=O)(=O)N3CCCC3)ccc21)NC1CCCCC1`, which Potency is on record?
A: inconclusive: 11.2 µM [falling, partial curve, poor fit]

Q: With `Nc1ccc(Nc2nc(-c3ccncc3)cs2)cc1` as the molecule, how does the Potency read?
A: inconclusive: 6.51 µM [falling, single point]

Q: Which activity change, negative = inhibition does the source give for `O=C(NC(NC(=S)Nc1cccc(Cl)c1)C(Cl)(Cl)Cl)OCc1ccccc1` (stereo not given) here?
A: inconclusive: 11.7%

Q: For `COc1cccc(N/C(N)=N/c2nc(CSc3ccccn3)cc(=O)[nH]2)c1`, which Potency is on record?
A: inconclusive: 3.16 µM [falling, single point]

Q: For `O=C(Nc1ccccc1Oc1cccnc1)C1CCCN(Cc2ccc(F)cc2)C1` (stereo not given), which activity change, negative = inhibition is on record?
A: inconclusive: 0.0613%

Q: For `CCCC(=O)N1CCN(c2nc3ccc(F)cc3s2)CC1`, which activity change, negative = inhibition is on record?
A: inactive

Q: For `COc1ccc(Nc2cc(C(=O)NCc3cccnc3)c3ccccc3n2)c(OC)c1`, which activity change, negative = inhibition is on record?
A: inconclusive: 19.5%

Q: Which Potency does the source give for `O=C1/C(=C/c2cccs2)SC(=S)N1CCC(=O)N1CCCCC1CCO` (stereo not given) here?
A: inconclusive: 15.8 µM [rising, partial curve, poor fit]

Q: With `COc1ccc(/C(O)=C2/C(=O)C(=O)N(CCN(C)C)C2c2ccccn2)cc1OC` (stereo not given) as the molecule, how does the activity change, negative = inhibition read?
A: inconclusive: 14.2%

Q: With `O=C(CCCCCn1c(=S)[nH]c2cc3c(cc2c1=O)OCO3)N1CCN(Cc2ccccc2)CC1` as the molecule, how does the activity change, negative = inhibition read?
A: inconclusive: 0.647%

Q: For `O=S(=O)(N1CCCCC1)N1CCCN(S(=O)(=O)N2CCCCC2)CC1`, which activity change, negative = inhibition is on record?
A: inconclusive: 3.76%

Q: Which Potency does the source give for `CCOc1cc(CNCCO)cc(Br)c1OCc1ccccc1` here?
A: inconclusive: 35.5 µM [falling, partial curve, poor fit]

Q: With `CC1CCN(C(=O)COC(=O)CNC(=O)c2ccccc2F)CC1` as the molecule, how does the activity change, negative = inhibition read?
A: inconclusive: 15%

Q: With `CC(Sc1nnc(Cc2ccccc2)o1)C(=O)Nc1ccccc1[N+](=O)[O-]` (stereo not given) as the molecule, how does the activity change, negative = inhibition read?
A: inconclusive: 10.8%

Q: Which activity change, negative = inhibition does the source give for `CN1CCN(S(=O)(=O)c2cccc(C(=O)Nc3sc4c(c3-c3nc5ccccc5[nH]3)CCCC4)c2)CC1` here?
A: inconclusive: 6.03%

Q: For `CCCn1nnc(NCc2ccc(OCc3cccs3)c(OC)c2)n1`, which activity change, negative = inhibition is on record?
A: inconclusive: -9.87%

Q: With `C=CCNC(=O)c1cccc(NS(=O)(=O)c2ccc(Cl)cc2)c1` as the molecule, how does the Potency read?
A: inconclusive: 3.55 µM [falling, single point]

Q: Which Potency does the source give for `O=C(NNC(=O)c1ccccc1O)c1ccc(Cl)c(S(=O)(=O)N2CCc3ccccc32)c1` here?
A: inconclusive: 29.1 µM [falling, single point]

Q: With `COc1ccccc1NS(=O)(=O)c1cc(NC(=O)c2ccc3c(c2)OCCO3)ccc1C` as the molecule, how does the activity change, negative = inhibition read?
A: inconclusive: -0.627%

Q: With `O=C(CN1CC(=O)Oc2ccccc21)OCC(=O)c1ccccc1` as the molecule, how does the Potency read?
A: inconclusive: 16.4 µM [falling, partial curve]

Q: With `COc1ccc(C2=NOC(C(=O)NCCCn3ccnc3)C2)cc1` (stereo not given) as the molecule, how does the activity change, negative = inhibition read?
A: inconclusive: 3.68%

Q: Which activity change, negative = inhibition does the source give for `COc1ccc(N2CCN(Cc3cc(=O)oc4cc(C)c(Cl)cc34)CC2)cc1` here?
A: inconclusive: -0.438%

Q: With `COC(=O)c1c(N2C(=O)[C@H]3[C@@H](C2=O)[C@]2(C(=O)Nc4ccc(C)cc42)N2CCC[C@@H]32)sc(C)c1C` as the molecule, how does the activity change, negative = inhibition read?
A: inactive

Q: For `O=C(N/N=C(\c1ccccc1)c1cccnc1)C(O)(c1ccccc1)c1ccccc1`, which activity change, negative = inhibition is on record?
A: inconclusive: 20.4%

Q: For `CCOc1ccccc1C(=O)N[C@H](C(=O)OCc1cc(=O)oc2cc(C)ccc12)C(C)C`, which Potency is on record?
A: inconclusive: 16.4 µM [falling, single point]

Q: With `Oc1ccc2ccccc2c1C=NCc1ccccc1` as the molecule, how does the activity change, negative = inhibition read?
A: inconclusive: 0.127%

Q: Which Potency does the source give for `COc1ccc(NC(=O)c2cc3ccc4c5ccccc5[nH]c4c3cc2O)cc1` here?
A: inconclusive: 8.91 µM [rising, partial curve, poor fit]

Q: For `O=C(NCC1CCCO1)c1ccc(COc2ccc(Br)cc2)cc1` (stereo not given), which activity change, negative = inhibition is on record?
A: inconclusive: 1.72%

Q: With `C/C(Cn1nnc([N+](=O)[O-])n1)=N\NC(=O)c1ccncc1` as the molecule, how does the Potency read?
A: inconclusive: 10 µM [falling, partial curve]

Q: For `Fc1ccc(OCc2nc(-c3ccncc3)n[nH]2)cc1`, which activity change, negative = inhibition is on record?
A: inconclusive: -10.2%

Q: With `Cc1ccc2nc(-c3ccc(-c4ccccn4)s3)cn2c1` as the molecule, how does the Potency read?
A: inconclusive: 22.4 µM [falling, partial curve]

Q: For `Cc1ccc(CNC(=O)CCc2nnc3ccc(NCCCN4CCCC4=O)nn23)cc1`, which Potency is on record?
A: inconclusive: 28.2 µM [falling, single point]

Q: Which activity change, negative = inhibition does the source give for `CC(=O)c1ccc(N2CCN(C(=O)c3cccc(Oc4ccccc4)c3)CC2)cc1` here?
A: inconclusive: -3.33%
